The record followed here is article PMC9523048.

Results are given in words; binding and its absence hold for the method and conditions named. In cells and extracts the contact can be indirect. Some entries that bind do so weakly or less than the wild type.

The target of this assay is T1, P-JMJD1A (pS265-JMJD1A), endogenous in NIH-3T3 cells (mouse (endogenous in NIH-3T3)) (UniProt Q6PCM1).
T1 sequence (chain, phosphoserine at S265 (P-JMJD1A immunoblotting)): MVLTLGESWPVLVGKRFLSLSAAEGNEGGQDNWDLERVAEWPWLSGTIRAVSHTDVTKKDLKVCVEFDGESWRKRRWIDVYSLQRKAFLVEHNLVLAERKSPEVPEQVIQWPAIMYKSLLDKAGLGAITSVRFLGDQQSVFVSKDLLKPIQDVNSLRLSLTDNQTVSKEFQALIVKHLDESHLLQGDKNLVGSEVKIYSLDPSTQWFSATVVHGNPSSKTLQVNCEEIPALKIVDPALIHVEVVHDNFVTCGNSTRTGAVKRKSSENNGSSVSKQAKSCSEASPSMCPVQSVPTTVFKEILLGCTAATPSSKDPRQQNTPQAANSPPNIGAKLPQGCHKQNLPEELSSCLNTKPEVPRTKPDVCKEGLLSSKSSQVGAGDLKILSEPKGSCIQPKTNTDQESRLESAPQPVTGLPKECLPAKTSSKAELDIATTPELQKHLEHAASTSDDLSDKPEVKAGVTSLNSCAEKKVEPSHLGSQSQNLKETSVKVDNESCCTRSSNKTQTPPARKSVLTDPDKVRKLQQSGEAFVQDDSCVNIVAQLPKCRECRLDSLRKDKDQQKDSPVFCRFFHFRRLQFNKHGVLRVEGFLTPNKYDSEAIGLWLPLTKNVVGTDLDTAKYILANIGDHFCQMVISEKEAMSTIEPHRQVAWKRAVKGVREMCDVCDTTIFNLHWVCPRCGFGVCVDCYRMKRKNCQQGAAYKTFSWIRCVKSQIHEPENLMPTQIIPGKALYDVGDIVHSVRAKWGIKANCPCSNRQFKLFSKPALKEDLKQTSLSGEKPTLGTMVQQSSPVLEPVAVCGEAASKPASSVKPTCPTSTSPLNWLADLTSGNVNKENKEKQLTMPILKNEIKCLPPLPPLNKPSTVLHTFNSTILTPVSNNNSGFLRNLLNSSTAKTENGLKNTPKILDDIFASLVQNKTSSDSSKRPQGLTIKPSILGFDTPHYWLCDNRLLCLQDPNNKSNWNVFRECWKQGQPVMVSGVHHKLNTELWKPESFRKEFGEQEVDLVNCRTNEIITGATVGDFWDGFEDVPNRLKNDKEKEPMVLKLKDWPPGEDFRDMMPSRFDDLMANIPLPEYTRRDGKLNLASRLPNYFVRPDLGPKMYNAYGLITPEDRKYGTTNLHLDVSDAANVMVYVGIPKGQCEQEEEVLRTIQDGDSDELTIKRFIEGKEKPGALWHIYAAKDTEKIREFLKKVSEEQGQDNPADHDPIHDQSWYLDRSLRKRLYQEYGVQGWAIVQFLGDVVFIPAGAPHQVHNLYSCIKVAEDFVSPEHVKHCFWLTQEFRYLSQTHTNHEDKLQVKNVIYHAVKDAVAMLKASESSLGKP
In words: co-IP; whole cell lysates of NIH-3T3 cells after adipogenic induction with IBMX-containing differentiation cocktail; cell lysis buffer A (50 mM Tris-HCl pH 8.0, 0.1 mM EDTA, 5% glycerol, 100 mM KCl, 0.1% NP-40), 4 h at 4 °C; immunoblotting for P-JMJD1A and MYPT1.

B1: myosin phosphatase target subunit 1 (MYPT1) (protein, UniProt Q9DBR7 1-1029)
chain: MKMADAKQKRNEQLKRWIGSETDLEPPVVKRQKTKVKFDDGAVFLAACSSGDTDEVLKLLHRGADINYANVDGLTALHQACIDDNVDMVKFLVENGANINQPDNEGWIPLHAAASCGYLDIAEFLIGQGAHVGAVNSEGDTPLDIAEEEAMEELLQNEVNRQGVDIEAARKEEERVMLRDARQWLNSGHISDVRHAKSGGTALHVAAAKGYTEVLKLLIQAGYDVNIKDYDGWTPLHAAAHWGKEEACRILVDNLCDMETVNKVGQTAFDVADEDILGYLEELQKKQTLLHSEKRDKKSPLIESTANMENNQPQKAFKNKETLIIEPEKNASRIESLEHEKADEEEEGKKDESSCSSEEDEEDDSESEAETDKTKPMASVSNAHTSSTQAAPAAVTAPTLSSNQGTPTSPVKKFPISTTKISPKEEERKDESPASWRLGLRKTGSYGALAEISASKEAQKEKDTAGVMRSASSPRLSSSLDNKEKEKDNKGTRLAYVTPTIPRRLASTSDIEEKENRESSSLRTSSSYTRRKWEDDLKKNSSINEGSTYHRSCSFGRRQDDLISCSVPSTTSTPTVTSAAGLQRSLPSSTSTAAKTPPGSSSAGTQSSTSNRLWAEDSTEKEKDSAPTAVTIPVAPTVVNAAAPSTTTLTTTTAGTVSEVRERRRSYLTPVRDEESESQRKARSRQARQSRRSTQGVTLTDLQEAEKTIGRSRSTRTREQENEEKEKEEKEKQDKEKQEEKKESEASREDEYKQKYSRTYDETYTRYRPVSTSSSSAPSSSSLSTLGSTLYASSQLNRPNSLVGITSAYSRGLAKENEREGEKKEEEKEGEDKSQPKSIRERRRPREKRRSTGVSFWTQDSDENEQERQSDTEDGSSKRETQTDSVSRYDSSSTSSSDRYDSLLGRSASYSYLEDRKPYSSRLEKDDSTDFKKLYEQILAENEKLKAQLHDTNMELTDLKLQLEKATQRQERFADRSQLEMEKRERRALERRISEMEEELKMLPDLKADNQRLKDENGALIRVISKLSK
Take B1: the binding result is “binds”.
